Test results taken from the supplement of paper PMC10849652.
Some of the results follow.

The chains behind the UniProt entries cited, without tags or fusion partners. Where a name states a change or a piece, a line headed by the entry shows the natural chain unless it says otherwise.
UniProt P61619, whole entry, looked up: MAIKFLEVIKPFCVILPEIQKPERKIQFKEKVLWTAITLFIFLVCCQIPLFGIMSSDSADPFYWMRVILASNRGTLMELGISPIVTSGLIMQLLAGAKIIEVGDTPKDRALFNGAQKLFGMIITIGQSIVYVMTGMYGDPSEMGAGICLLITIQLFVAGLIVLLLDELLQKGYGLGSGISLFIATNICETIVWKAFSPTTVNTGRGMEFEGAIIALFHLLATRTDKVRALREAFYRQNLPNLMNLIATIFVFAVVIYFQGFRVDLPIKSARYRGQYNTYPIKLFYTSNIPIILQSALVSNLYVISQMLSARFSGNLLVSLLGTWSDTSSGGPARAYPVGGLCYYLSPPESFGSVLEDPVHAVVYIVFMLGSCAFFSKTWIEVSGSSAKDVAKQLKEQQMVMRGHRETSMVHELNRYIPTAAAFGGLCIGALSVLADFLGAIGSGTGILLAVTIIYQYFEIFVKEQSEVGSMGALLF
UniProt P34896: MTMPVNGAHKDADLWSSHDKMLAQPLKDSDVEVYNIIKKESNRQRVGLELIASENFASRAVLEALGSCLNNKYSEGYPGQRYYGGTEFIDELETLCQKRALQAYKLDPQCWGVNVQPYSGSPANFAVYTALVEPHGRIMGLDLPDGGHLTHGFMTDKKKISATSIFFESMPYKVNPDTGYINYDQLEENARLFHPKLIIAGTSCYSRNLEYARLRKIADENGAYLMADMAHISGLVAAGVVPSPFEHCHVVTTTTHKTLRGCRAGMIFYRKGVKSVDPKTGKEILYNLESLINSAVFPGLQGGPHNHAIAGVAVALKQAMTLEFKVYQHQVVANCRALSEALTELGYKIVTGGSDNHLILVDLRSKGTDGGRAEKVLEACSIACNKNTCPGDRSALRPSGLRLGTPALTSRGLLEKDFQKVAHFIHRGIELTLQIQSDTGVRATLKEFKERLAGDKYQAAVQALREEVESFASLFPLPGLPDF
UniProt Q8NC51: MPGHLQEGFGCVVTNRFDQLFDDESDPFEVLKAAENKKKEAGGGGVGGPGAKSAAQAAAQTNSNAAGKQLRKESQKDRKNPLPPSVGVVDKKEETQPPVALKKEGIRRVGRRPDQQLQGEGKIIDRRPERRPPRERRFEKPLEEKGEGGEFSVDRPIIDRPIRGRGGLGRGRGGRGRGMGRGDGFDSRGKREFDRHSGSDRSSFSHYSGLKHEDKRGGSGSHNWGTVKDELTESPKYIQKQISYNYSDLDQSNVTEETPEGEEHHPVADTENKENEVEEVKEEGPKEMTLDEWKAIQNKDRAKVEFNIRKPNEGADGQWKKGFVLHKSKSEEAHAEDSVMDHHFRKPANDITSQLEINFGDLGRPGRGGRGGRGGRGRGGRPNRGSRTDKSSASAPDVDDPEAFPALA
UniProt P31947: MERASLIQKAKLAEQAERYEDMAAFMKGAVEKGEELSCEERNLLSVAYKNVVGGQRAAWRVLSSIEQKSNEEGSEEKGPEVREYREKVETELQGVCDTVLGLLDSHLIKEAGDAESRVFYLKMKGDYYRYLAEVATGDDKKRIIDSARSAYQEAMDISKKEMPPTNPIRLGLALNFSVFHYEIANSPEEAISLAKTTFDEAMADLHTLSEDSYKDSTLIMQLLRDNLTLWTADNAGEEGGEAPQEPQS
UniProt Q9UGK8: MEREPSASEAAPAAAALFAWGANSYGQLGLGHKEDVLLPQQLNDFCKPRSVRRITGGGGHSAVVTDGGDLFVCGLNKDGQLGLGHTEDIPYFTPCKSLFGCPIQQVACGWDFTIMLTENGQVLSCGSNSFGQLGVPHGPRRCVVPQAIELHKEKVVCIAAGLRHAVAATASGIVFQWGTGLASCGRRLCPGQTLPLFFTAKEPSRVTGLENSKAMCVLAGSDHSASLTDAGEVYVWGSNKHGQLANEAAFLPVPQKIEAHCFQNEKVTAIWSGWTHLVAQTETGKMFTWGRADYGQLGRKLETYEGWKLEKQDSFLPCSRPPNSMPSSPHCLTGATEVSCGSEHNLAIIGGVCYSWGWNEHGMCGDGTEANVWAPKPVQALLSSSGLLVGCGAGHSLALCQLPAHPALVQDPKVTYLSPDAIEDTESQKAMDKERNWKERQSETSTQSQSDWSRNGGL
UniProt Q12872: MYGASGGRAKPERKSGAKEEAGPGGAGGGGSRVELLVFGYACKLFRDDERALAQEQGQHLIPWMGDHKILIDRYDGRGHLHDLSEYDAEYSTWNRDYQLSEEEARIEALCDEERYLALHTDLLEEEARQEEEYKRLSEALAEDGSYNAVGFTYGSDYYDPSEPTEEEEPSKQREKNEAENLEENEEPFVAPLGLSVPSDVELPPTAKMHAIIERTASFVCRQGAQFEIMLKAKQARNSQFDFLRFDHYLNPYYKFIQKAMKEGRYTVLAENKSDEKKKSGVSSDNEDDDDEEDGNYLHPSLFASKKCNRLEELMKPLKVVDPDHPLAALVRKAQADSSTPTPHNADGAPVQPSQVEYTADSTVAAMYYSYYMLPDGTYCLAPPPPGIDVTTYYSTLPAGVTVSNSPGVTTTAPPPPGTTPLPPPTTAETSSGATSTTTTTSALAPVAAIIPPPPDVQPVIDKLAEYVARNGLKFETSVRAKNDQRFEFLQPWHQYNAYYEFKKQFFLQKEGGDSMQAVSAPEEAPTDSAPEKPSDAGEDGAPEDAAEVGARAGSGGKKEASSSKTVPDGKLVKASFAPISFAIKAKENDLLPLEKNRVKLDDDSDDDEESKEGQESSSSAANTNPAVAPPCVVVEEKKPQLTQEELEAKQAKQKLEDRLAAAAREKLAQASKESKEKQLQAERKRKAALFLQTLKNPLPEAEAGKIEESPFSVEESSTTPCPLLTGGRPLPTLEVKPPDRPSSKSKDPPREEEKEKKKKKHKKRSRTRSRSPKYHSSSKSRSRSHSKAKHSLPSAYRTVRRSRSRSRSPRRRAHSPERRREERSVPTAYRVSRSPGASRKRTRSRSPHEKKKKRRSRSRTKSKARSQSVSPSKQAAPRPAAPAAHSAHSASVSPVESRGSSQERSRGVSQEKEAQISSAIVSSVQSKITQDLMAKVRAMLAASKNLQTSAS
UniProt O43765: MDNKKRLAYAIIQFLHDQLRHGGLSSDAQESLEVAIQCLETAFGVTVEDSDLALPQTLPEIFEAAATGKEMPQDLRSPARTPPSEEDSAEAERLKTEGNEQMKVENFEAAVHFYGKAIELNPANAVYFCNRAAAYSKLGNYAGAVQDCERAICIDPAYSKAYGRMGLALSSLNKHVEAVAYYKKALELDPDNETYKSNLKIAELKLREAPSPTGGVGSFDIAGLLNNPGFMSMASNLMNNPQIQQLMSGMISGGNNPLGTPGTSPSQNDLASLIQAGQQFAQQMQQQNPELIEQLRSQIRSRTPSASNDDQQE
UniProt Q13228: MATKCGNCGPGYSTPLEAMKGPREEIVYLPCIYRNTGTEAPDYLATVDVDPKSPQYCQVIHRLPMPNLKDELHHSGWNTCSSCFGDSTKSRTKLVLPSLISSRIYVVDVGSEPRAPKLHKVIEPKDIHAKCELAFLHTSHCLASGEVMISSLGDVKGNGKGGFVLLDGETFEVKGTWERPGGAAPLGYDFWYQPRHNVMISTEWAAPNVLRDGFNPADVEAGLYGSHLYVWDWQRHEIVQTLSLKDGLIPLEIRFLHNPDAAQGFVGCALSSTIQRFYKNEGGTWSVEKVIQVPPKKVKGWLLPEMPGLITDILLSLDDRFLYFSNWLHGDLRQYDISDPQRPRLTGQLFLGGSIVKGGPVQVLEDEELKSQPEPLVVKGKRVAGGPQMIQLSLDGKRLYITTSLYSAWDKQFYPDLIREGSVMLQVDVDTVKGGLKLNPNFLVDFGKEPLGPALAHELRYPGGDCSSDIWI
UniProt P60468, whole entry, looked up: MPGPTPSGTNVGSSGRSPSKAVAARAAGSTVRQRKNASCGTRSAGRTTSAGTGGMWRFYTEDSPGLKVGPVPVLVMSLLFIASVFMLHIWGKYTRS
UniProt P23246: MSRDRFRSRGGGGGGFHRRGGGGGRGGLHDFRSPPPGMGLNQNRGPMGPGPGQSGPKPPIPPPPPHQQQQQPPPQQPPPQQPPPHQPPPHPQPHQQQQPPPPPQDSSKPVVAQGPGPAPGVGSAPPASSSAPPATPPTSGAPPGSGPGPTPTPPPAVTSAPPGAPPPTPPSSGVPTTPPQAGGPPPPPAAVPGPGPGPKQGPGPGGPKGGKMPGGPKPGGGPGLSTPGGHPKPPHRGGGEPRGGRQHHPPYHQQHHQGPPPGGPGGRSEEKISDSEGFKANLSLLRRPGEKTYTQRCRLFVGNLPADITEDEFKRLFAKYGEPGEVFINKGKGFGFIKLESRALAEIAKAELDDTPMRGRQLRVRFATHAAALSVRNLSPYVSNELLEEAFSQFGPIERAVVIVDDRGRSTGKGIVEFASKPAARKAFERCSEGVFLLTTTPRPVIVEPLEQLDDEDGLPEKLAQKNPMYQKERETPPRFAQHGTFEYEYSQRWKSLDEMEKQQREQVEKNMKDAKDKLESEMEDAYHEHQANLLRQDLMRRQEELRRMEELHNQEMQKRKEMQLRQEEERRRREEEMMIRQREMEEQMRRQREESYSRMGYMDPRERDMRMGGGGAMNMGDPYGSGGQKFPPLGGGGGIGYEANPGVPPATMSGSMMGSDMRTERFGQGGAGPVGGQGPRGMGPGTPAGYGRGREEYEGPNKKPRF
UniProt P50454: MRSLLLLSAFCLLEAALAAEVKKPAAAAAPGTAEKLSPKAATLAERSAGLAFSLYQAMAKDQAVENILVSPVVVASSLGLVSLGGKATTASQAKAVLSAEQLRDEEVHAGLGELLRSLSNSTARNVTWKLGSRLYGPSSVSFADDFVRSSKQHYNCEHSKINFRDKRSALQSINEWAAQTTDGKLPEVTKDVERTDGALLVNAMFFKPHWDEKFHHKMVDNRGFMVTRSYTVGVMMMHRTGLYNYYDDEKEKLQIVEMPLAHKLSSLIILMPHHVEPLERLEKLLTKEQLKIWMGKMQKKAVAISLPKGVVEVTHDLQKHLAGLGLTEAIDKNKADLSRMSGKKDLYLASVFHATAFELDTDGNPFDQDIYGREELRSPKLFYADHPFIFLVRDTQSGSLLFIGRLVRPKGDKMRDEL
UniProt Q99442: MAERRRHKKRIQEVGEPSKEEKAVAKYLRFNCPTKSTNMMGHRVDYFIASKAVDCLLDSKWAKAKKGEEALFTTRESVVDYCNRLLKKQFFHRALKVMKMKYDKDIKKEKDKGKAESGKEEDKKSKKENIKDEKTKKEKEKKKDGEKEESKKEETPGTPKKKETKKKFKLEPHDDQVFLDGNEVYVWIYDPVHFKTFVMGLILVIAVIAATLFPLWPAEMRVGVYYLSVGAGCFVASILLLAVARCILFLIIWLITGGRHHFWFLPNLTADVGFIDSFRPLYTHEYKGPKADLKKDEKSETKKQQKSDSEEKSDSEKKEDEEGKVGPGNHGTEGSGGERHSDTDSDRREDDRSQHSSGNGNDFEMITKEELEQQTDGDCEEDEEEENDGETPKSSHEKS
UniProt P36955: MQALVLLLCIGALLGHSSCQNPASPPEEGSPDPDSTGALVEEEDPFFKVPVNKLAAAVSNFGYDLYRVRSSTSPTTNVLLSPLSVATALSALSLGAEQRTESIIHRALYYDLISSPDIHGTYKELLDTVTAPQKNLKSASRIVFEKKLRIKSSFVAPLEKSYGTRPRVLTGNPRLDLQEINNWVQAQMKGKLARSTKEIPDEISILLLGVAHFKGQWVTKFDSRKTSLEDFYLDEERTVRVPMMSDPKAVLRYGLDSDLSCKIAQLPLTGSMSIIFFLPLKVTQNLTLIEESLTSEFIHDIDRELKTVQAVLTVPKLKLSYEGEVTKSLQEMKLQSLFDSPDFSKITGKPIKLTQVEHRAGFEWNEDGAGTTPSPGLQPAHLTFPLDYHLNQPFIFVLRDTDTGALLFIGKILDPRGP
UniProt P49903: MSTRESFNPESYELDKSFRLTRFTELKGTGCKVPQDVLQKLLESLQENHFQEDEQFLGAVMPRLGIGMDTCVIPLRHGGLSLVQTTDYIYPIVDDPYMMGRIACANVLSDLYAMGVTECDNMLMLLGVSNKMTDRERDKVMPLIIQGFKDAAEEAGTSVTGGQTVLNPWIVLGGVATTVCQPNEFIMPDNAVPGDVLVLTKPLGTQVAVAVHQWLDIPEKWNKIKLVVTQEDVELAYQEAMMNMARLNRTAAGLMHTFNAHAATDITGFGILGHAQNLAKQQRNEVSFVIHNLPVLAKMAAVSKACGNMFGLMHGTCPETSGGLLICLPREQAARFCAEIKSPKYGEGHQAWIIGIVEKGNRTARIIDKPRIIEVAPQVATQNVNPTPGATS
UniProt Q15019: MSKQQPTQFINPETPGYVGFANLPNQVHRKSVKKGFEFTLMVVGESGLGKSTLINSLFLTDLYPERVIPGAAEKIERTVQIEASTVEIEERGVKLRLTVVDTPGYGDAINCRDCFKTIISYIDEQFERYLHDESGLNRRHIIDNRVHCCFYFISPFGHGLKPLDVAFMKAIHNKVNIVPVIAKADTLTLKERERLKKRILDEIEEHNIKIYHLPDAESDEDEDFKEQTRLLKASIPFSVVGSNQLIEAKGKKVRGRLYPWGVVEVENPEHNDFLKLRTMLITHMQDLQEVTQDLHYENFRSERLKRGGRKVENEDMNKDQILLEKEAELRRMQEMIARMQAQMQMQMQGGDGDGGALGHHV

Legend:
Assay in all cases: log2 fold change, soluble protein after heating vs DMSO (PISA); higher = thermal stabilisation; K562 cells, 10 uM, 30 min; active = over 0.2 and 3.5 SD of the protein, either way, in both replicates (recomputed)
saracatinib = compound: CN1CCN(CCOc2cc(OC3CCOCC3)c3c(Nc4c(Cl)ccc5c4OCO5)ncnc3c2)CC1 [saracatinib]
Method in brief: (§1)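 For each measurement, 10 μM compound was applied for 30 min to K562 cells at 2×10^6 cells/mL. Aliquots were heated for 3 min across 48°C-58°C, pooled, and extracted in PBS with 0.5% NP-40 at 4°C; the supernatant after 21,000xg for 90 min was soluble protein. This was quantified by TMTpro 16plex LC-MS/MS with channel sums equalised, and thermal stability was reported relative to control samples from duplicates, on a log2 fold-change scale.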

sotrastaurin = compound: CN1CCN(c2nc(C3=C(c4c[nH]c5ccccc45)C(=O)NC3=O)c3ccccc3n2)CC1 [sotrastaurin]
Method in brief: as §1

alvocidib = compound: CN1CC[C@H](c2c(O)cc(O)c3c(=O)cc(-c4ccccc4Cl)oc23)[C@H](O)C1 [alvocidib]
Method in brief: as §1

Tubastatin A = compound: CN1CCc2c(c3ccccc3n2Cc2ccc(C(=O)NO)cc2)C1 [Tubastatin A]
Method in brief: as §1

[1] = compound: CNC(=O)C1=CC=CC=C1NC2=NC(=NC=C2Cl)NC3=C(C=C(C=C3)N4CCOCC4)OC
Method in brief: as §1

defactinib = compound: CNC(=O)c1ccc(Nc2ncc(C(F)(F)F)c(NCc3nccnc3N(C)S(C)(=O)=O)n2)cc1 [defactinib]
Method in brief: as §1

rucaparib = compound: CNCc1ccc(-c2[nH]c3cc(F)cc4c3c2CCNC4=O)cc1 [rucaparib]
Method in brief: as §1

[2] = compound: CNc1nc(-c2ccc3c(N)n[nH]c3c2)cc(N2C[C@@H](C(=O)NC3CCCCC3)CC[C@H]2C)n1
Method in brief: as §1

encorafenib = compound: COC(=O)N[C@@H](C)CNc1nccc(-c2cn(C(C)C)nc2-c2cc(Cl)cc(NS(C)(=O)=O)c2F)n1 [encorafenib]
Method in brief: as §1

[3] = compound: COC(=O)[C@H](CCSC)NC(=O)C1=C(C=C(C=C1)NC[C@H](CS)N)C2=CC=CC=C2
Method in brief: as §1

Measured: log2 fold change

SEPTIN11 isoform 2 (UniProt Q9NVA2)
inactive: saracatinib 0.02 | sotrastaurin 0.032 | alvocidib -0.018 | Tubastatin A 0.013 | [1] -0.021 | defactinib -0.01 | rucaparib -0.014 | [2] -0.035 | encorafenib -0.006 | [3] 0.017

SIGMAR1 (UniProt Q99720)
inactive: saracatinib 0.08 | sotrastaurin -0.008 | alvocidib -0.007 | Tubastatin A -0.028 | [1] -0.034 | defactinib 0.035 | rucaparib -0.07 | [2] -0.057 | encorafenib -0.001 | [3] 0.106

SEC61A1 (UniProt P61619)
inactive: saracatinib -0.018 | sotrastaurin 0.031 | alvocidib -0.018 | Tubastatin A -0.013 | [1] -0.02 | defactinib -0.014 | rucaparib 0.004 | [2] 0.009 | encorafenib 0.012 | [3] 0.013

SHMT1 (UniProt P34896)
inactive: saracatinib 0.042 | sotrastaurin -0.01 | alvocidib -0.013 | Tubastatin A -0.011 | [1] -0.028 | defactinib -0.026 | rucaparib -0.045 | [2] -0.005 | encorafenib 0.003 | [3] -0.052

SKA3 (UniProt Q8IX90)
inactive: saracatinib -0.045 | sotrastaurin -0.068 | alvocidib 0.078 | Tubastatin A 0.09 | [1] 0.03 | defactinib 0.033 | rucaparib 0.149 | [2] -0.015 | encorafenib 0.025 | [3] 0.124

SERBP1 (UniProt Q8NC51)
inactive: saracatinib -0.064 | sotrastaurin 0.111 | alvocidib 0.128 | Tubastatin A 0.013 | [1] -0.028 | defactinib 0.102 | rucaparib 0.105 | [2] 0.015 | encorafenib 0.014 | [3] 0.011

SIPA1 (UniProt Q96FS4)
inactive: saracatinib -0.005 | sotrastaurin -0.029 | alvocidib -0.046 | Tubastatin A 0 | [1] -0.031 | defactinib 0.008 | rucaparib 0.026 | [2] 0.045 | encorafenib -0.01 | [3] 0.002

SFN (UniProt P31947)
inactive: saracatinib -0.074 | sotrastaurin 0.044 | alvocidib -0.017 | Tubastatin A -0.034 | [1] 0.005 | defactinib -0.016 | rucaparib -0.085 | [2] 0.024 | encorafenib -0.054 | [3] 0.001

SIAH1 isoform 2 (UniProt Q8IUQ4)
inactive: saracatinib 0.118 | sotrastaurin 0.018 | alvocidib -0.046 | Tubastatin A 0.152 | [1] -0.033 | defactinib -0.085 | rucaparib -0.09 | [2] -0.118 | encorafenib -0.045 | [3] -0.103

SERGEF (UniProt Q9UGK8)
inactive: saracatinib -0.021 | sotrastaurin -0.025 | alvocidib -0.155 | Tubastatin A -0.064 | [1] 0.008 | defactinib -0.061 | rucaparib -0.156 | [2] 0.151 | encorafenib 0.051 | [3] -0.067

SEPSECS (UniProt Q9HD40)
inactive: saracatinib 0.133 | sotrastaurin 0.039 | alvocidib 0 | Tubastatin A 0.006 | [1] -0.023 | defactinib -0.005 | rucaparib -0.015 | [2] 0.01 | encorafenib -0.046 | [3] -0.03

SFSWAP isoform 2 (UniProt Q12872)
inactive: saracatinib -0.024 | sotrastaurin -0.13 | alvocidib -0.126 | Tubastatin A 0.017 | [1] -0.114 | defactinib -0.085 | rucaparib 0.036 | [2] -0.051 | encorafenib 0.162 | [3] 0.044

SFXN4 (UniProt Q6P4A7)
inactive: saracatinib 0.051 | sotrastaurin 0.024 | alvocidib 0.024 | Tubastatin A -0.019 | [1] 0.002 | defactinib -0.013 | rucaparib -0.045 | [2] 0.004 | encorafenib 0.016 | [3] -0.004

SF3B4 (UniProt Q15427)
inactive: saracatinib -0.035 | sotrastaurin 0.033 | alvocidib 0.095 | Tubastatin A 0.047 | [1] 0.034 | defactinib 0.11 | rucaparib 0.078 | [2] -0.084 | encorafenib 0.035 | [3] 0.042

SF1 isoform 5 (UniProt Q15637)
inactive: saracatinib 0.06 | sotrastaurin 0.008 | alvocidib -0.02 | Tubastatin A 0.005 | [1] -0.017 | defactinib -0.022 | rucaparib 0.003 | [2] -0.009 | encorafenib -0.025 | [3] 0.032

SGTA (UniProt O43765)
inactive: saracatinib 0.003 | sotrastaurin -0.039 | alvocidib -0.047 | Tubastatin A 0.012 | [1] -0.007 | defactinib -0.075 | rucaparib -0.006 | [2] -0.033 | encorafenib 0.012 | [3] 0

SFT2D3 (UniProt Q587I9)
inactive: saracatinib 0.018 | sotrastaurin -0.011 | alvocidib 0.014 | Tubastatin A 0.01 | [1] 0.072 | defactinib 0.027 | rucaparib -0.043 | [2] 0.012 | encorafenib -0.047 | [3] -0.071

SERPINB9 (UniProt P50453)
inactive: saracatinib 0.044 | sotrastaurin 0.002 | alvocidib -0.039 | Tubastatin A -0.012 | [1] -0.06 | defactinib -0.026 | rucaparib 0.007 | [2] -0.005 | encorafenib -0.013 | [3] 0.008

SFXN4 isoform 3 (UniProt Q6P4A7)
inactive: saracatinib 0.017 | sotrastaurin -0.059 | alvocidib 0.024 | Tubastatin A 0.041 | [1] -0.199 | defactinib -0.066 | rucaparib -0.092 | [2] -0.107 | encorafenib 0.156 | [3] -0.04

SELENBP1 isoform 4 (UniProt Q13228)
inactive: saracatinib 0.082 | sotrastaurin -0.003 | alvocidib 0.013 | Tubastatin A -0.032 | [1] -0.062 | defactinib -0.016 | rucaparib -0.02 | [2] -0.04 | encorafenib -0.025 | [3] 0.052

SEC61B (UniProt P60468)
inactive: saracatinib 0.017 | sotrastaurin 0.066 | alvocidib 0.051 | Tubastatin A -0.045 | [1] 0.04 | defactinib 0.006 | rucaparib 0.014 | [2] -0.032 | encorafenib -0.01 | [3] 0.027

SFPQ (UniProt P23246)
inactive: saracatinib -0.043 | sotrastaurin -0.083 | alvocidib 0.036 | Tubastatin A 0.01 | [1] -0.019 | defactinib 0.077 | rucaparib 0.227 | [2] -0.026 | encorafenib 0.099 | [3] 0.008

SERPINH1 (UniProt P50454)
inactive: saracatinib -0.02 | sotrastaurin -0.017 | alvocidib -0.029 | Tubastatin A -0.003 | [1] -0.019 | defactinib 0.005 | rucaparib -0.001 | [2] 0.013 | encorafenib 0.016 | [3] -0.024

SEC62 (UniProt Q99442)
inactive: saracatinib 0.057 | sotrastaurin 0.042 | alvocidib 0.002 | Tubastatin A -0.015 | [1] -0.034 | defactinib 0.021 | rucaparib 0.009 | [2] -0.011 | encorafenib -0.042 | [3] -0.009

SERPINF1 (UniProt P36955)
inactive: saracatinib 0.023 | sotrastaurin 0.197 | alvocidib -0.021 | Tubastatin A -0.015 | [1] 0.133 | defactinib -0.026 | rucaparib -0.033 | [2] -0.111 | encorafenib -0.164 | [3] 0.058

SEPHS1 (UniProt P49903)
inactive: saracatinib -0.002 | sotrastaurin -0.048 | alvocidib -0.058 | Tubastatin A 0.017 | [1] -0.041 | defactinib -0.017 | rucaparib -0.052 | [2] 0.023 | encorafenib 0.004 | [3] 0.027

SEPTIN2 isoform 2 (UniProt Q15019)
inactive: saracatinib 0.003 | sotrastaurin 0.072 | alvocidib -0.018 | Tubastatin A 0.018 | [1] -0.046 | defactinib -0.009 | rucaparib -0.044 | [2] -0.002 | encorafenib -0.01 | [3] 0.013

Two consecutive records from above:
SERPINH1 (UniProt P50454)
inactive: saracatinib -0.02 | sotrastaurin -0.017 | alvocidib -0.029 | Tubastatin A -0.003 | [1] -0.019 | defactinib 0.005 | rucaparib -0.001 | [2] 0.013 | encorafenib 0.016 | [3] -0.024

SEC62 (UniProt Q99442)
inactive: saracatinib 0.057 | sotrastaurin 0.042 | alvocidib 0.002 | Tubastatin A -0.015 | [1] -0.034 | defactinib 0.021 | rucaparib 0.009 | [2] -0.011 | encorafenib -0.042 | [3] -0.009

Further results

SLAIN2 (UniProt Q9P270)
inactive: saracatinib -0.03 | sotrastaurin 0.023 | alvocidib -0.027 | Tubastatin A 0.037 | [1] -0.003 | defactinib 0.03 | rucaparib 0.024 | [2] -0.03 | encorafenib -0.011 | [3] 0.064

SERPINB1 (UniProt P30740)
inactive: saracatinib 0.028 | sotrastaurin 0.004 | alvocidib -0.033 | Tubastatin A -0.012 | [1] -0.01 | defactinib -0.01 | rucaparib -0.034 | [2] 0.006 | encorafenib -0.017 | [3] 0.035
